{"sequences": {"note": "Sequences of proteins named here, by UniProt entry; tags and fusion partners are left off. A change or cut given only in a name is not applied to a line headed by its entry.", "UniProt Q9HCE5": "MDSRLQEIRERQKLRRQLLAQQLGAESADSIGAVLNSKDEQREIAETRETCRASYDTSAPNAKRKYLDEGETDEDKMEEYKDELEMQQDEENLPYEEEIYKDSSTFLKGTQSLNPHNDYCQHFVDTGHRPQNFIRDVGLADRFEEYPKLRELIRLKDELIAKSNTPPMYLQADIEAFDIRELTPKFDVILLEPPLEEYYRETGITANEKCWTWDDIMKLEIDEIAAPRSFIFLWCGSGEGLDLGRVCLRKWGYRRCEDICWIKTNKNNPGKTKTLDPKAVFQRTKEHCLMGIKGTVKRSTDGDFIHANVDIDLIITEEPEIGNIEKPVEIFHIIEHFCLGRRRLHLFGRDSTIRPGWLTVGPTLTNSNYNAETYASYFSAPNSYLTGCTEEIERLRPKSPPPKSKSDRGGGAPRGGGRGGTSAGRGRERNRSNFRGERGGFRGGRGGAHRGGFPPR", "UniProt Q16637": "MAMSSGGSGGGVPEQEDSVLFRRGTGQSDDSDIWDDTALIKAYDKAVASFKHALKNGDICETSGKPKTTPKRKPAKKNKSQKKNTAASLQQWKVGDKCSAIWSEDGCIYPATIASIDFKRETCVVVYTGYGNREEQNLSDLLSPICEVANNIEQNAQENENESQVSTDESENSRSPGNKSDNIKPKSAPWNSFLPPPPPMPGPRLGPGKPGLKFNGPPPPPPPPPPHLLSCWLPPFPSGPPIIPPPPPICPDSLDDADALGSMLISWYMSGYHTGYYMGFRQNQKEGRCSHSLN"}, "source": "paper PMC12635257", "biological_target": "Flag-tagged arginine methylation-deficient (RK) mutant METTL14 of the co-IP of Fig. 2C (human) (UniProt Q9HCE5)", "test": "co-IP; HeLa cells transfected with Flag-tagged METTL14 (WT, RK, 1-400), METTL3 or WTAP; endogenous SMN detected by western blot; co-IP buffer 50 mM Tris-HCl pH 7.4, 150 mM NaCl, 15 mM MgCl2, 5 mM EDTA, 0.1% NP-40; also in siPRMT1 or siPRMT5 cells and in cells treated with MS023, EPZ015666 or both", "note": "No constants are given. Whether binding was seen depends on the method and setting. Binding seen in cells or lysates may run through a third protein."}
{"substance": "SMN (endogenous) (from UniProt Q16637 1-294)", "values": [{"measurement": "binding", "value": "no binding"}]}
